These are yes or no findings as the source states them, for the method shown. A result given as binding can be weak or reduced; the word gives no strength.

Chains of the proteins cited; added tags and fusions are not shown. Lines headed by an entry give the natural chain unless they say otherwise; changes in a name come on top. A line that says so, or that is headed by a name, gives the form on record, which may keep a tag or linker.
Fc-wtNKG2D (P26718, form named): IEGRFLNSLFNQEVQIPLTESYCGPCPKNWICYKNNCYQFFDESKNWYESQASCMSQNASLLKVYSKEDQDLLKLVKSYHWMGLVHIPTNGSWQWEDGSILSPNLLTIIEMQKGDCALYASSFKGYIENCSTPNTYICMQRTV
UniProt Q9BZM6: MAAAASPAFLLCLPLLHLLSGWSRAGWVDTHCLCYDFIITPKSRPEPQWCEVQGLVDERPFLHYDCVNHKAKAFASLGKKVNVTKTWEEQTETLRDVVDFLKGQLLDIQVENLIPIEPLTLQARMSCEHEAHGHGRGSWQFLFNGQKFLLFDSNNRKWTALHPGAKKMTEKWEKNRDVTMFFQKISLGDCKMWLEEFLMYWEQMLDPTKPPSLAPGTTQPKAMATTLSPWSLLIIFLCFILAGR

Assay [1] addresses Fc-wtNKG2D (human) (UniProt P26718). In words: Octet BLI; Fc-wtNKG2D captured on AHC tips, dilution series of His-tagged monomeric ligand. (BLI is a label-free optical method that tracks binding on a fibre tip over time.)
For assay [2] the target is unchanged. As to the kind of experiment: Octet BLI, response against concentration; panel 'wtNKG2D', x axis printed as 'nM Fc-NKG2D.wt' (legend: monomeric ligands on Fc-wtNKG2D).

As to “His-tagged monomeric ULBP1 A1-A2 domain (from UniProt Q9BZM6) (ligand)”, the binding result in the assay with Fc-wtNKG2D (human) [1] and with Fc-wtNKG2D (human) [2] was “binds” in each case.
